Source: paper PMC10423209

By UniProt entry, the sequences of proteins in these tests, tags left out.
UniProt Q15599: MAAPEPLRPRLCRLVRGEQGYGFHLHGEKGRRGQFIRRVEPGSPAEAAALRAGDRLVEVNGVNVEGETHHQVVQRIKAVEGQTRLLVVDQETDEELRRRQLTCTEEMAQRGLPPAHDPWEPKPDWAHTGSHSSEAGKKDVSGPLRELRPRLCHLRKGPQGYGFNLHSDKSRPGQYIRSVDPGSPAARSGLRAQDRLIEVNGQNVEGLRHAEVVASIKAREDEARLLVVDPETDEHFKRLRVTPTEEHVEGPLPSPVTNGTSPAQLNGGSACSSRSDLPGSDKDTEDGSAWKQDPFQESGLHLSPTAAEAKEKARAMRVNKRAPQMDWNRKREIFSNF

Molecular target: T1, Flag-SLC26A3 (wild type) (human) (UniProt P40879)
T1 sequence: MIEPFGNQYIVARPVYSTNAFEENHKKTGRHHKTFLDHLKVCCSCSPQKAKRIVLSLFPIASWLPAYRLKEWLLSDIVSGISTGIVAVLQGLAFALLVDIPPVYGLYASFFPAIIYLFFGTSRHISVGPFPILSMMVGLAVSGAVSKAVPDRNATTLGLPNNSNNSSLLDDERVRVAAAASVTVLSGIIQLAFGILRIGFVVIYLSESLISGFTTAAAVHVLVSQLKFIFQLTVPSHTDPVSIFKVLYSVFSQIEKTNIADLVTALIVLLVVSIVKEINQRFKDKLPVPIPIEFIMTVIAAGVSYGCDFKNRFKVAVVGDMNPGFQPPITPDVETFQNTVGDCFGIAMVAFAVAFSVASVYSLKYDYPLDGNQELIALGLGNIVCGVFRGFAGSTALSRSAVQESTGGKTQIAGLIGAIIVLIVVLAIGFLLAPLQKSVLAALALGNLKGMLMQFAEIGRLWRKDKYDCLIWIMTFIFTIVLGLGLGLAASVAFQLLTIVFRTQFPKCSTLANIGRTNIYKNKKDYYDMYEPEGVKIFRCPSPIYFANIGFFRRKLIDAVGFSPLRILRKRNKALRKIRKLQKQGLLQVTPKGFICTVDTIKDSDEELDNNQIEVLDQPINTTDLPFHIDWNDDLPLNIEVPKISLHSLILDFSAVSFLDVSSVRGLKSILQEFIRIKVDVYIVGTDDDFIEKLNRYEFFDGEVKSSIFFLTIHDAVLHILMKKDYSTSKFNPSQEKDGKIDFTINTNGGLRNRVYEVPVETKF
Assay: affinity purification with mass spectrometry; Flag-SLC26A3 or empty vector transfected into HEK293T; co-immunoprecipitation with anti-Flag antibody; SDS-PAGE, Coomassie, gel lanes to mass spectrometry

binding: binds
Substance: endogenous NHERF2 (from UniProt Q15599 1-337)

Results are given in words; binding and its absence hold for the method and conditions named. Binding seen in cells or lysates may run through a third protein. These calls come from enrichment with a bait or labelling near it, and not all partners need be listed. Tags and fused reporters may be left off the sequences shown.
